Reference: PMC5996148
This is one part of the list. For some assays here: The source does not settle which construct or isoform was used.

What was measured:
Experiment in all cases: protein microarray (ProtoArray v5.0), streptavidin-Alexa Fluor 647
Conditions in all cases: 3'-biotin; 20 mM Tris (pH 7.5), 5 mM MgCl2, 100 mM KCl, 0.1% Tween-20, A/T-rich and random oligonucleotide blockers; temperature not stated; high values mean tight binding
[1] = test system: High affinity cAMP-specific and IBMX-insensitive 3prime,5prime-cyclic phosphodiesterase 8A (human)
[2] = test system: Histone H2B type 1-D (human)
[3] = test system: Histone H2B type 1-O (human)
[4] = test system: Histone deacetylase 10 (human)
[5] = test system: Homeobox protein BarH-like 1 (human)
[6] = test system: Homeobox protein Hox-B6 (human)
[7] = test system: Homeobox protein Meis1 (human)
[8] = test system: Hsp90 co-chaperone Cdc37-like 1 (human)
[9] = test system: Huntingtin-interacting protein M (human)
ICEBERG (human) = test system: ICEBERG (human)
IDH3B (human) = test system: IDH3B (human)
IFI35 (human) = test system: IFI35 (human)
IFIH1 (human) = test system: IFIH1 (human)
IFIT3 (human) = test system: IFIT3 (human)
IFNA1 = target: T1, IFNA1 (UniProt P0DY56)
T1 sequence: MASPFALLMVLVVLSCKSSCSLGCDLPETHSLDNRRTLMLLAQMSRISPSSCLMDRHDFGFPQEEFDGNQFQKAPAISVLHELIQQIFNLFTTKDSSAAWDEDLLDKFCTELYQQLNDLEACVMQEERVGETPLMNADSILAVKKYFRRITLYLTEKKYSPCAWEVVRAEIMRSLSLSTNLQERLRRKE

IFNA5 (human) = test system: IFNA5 (human)
IFNA8 (human) = test system: IFNA8 (human)
IFNW1 (human) = test system: IFNW1 (human)
IGHM (human) = test system: IGHM (human)
IGJ (human) = test system: IGJ (human)

Question: How did the binding signal [1] turn out when “GGGGACAGGGGTATGGGGAGGGG [G4-3 biotinylated (CtG)]” was run?
Answer: Its binding signal is -0.33 z-score.

Question: What about the binding signal [2] of the same sequence?
Answer: The binding signal was 4.46 z-score.

Question: What about the binding signal [3] of the same sequence?
Answer: The binding signal was 3.22 z-score.

Question: What about the binding signal [4] of the same sequence?
Answer: The binding signal was -0.33 z-score.

Question: What about the binding signal [5] of the same sequence?
Answer: The binding signal was 3.21 z-score.

Question: What about the binding signal [6] of the same sequence?
Answer: The binding signal was -0.335 z-score.

Question: What about the binding signal [7] of the same sequence?
Answer: The binding signal was -0.333 z-score.

Question: What about the binding signal [8] of the same sequence?
Answer: The binding signal was -0.34 z-score.

Question: And the binding signal [9]?
Answer: Its binding signal is -0.331 z-score.

Question: And the binding signal (ICEBERG (human))?
Answer: Its binding signal is -0.314 z-score.

Question: And the binding signal (IDH3B (human))?
Answer: Its binding signal is -0.317 z-score.

Question: And the binding signal (IFI35 (human))?
Answer: The binding signal was -0.313 z-score.

Question: What about the binding signal (IFIH1 (human)) of the same sequence?
Answer: The binding signal was -0.341 z-score.

Question: What about the binding signal (IFIT3 (human)) of the same sequence?
Answer: The binding signal was -0.342 z-score.

Question: What about the binding signal (IFNA1) of the same sequence?
Answer: The binding signal was -0.325 z-score.

Question: And the binding signal (IFNA5 (human))?
Answer: Its binding signal is -0.331 z-score.

Question: What about the binding signal (IFNA8 (human)) of the same sequence?
Answer: Its binding signal is -0.322 z-score.

Question: And the binding signal (IFNW1 (human))?
Answer: Its binding signal is -0.324 z-score.

Question: What about the binding signal (IGHM (human)) of the same sequence?
Answer: Its binding signal is -0.327 z-score.

Question: What about the binding signal (IGJ (human)) of the same sequence?
Answer: Its binding signal is -0.296 z-score.
